Reference: PubChem BioAssay AID504808 (Drosophila RNAi Screening Center, 2011)

- Aim: 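Genes whose loss lifts activity of an E2F-responsive reporter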 (primary screen)
- Cells: Drosophila S2 cells
- Knock-down reagent: long dsRNA against Drosophila genes
- Measured: 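Firefly luciferase driven by E2F sites, normalised to Renilla luciferase on the same minimal promoter, measured by plate reader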
- Direction: E2F firefly: higher = more E2F reporter activity; Renilla normaliser: higher = more normaliser reporter signal
- Rule for the call: 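Called active if the normalised E2F reporter went up by over 50%; the cutoff is arbitrary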
The screen tested about 21,000 reagents; below is an unselected part of those that have a named target and a result. In the full data, 18 (0.084%) were called active. 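Raw counts without plate normalisation, one of two replicates; the ratio scores behind the calls were not deposited.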 Entries without a mark were called inactive. Names joined by + are all predicted targets of the reagent. The record does not give: the amount of reagent, the time to read-out.

| Gene | DRSC id | E2F firefly, rep 1 | Renilla normaliser, rep 1 |
| --- | --- | --- | --- |
| CG14565 | DRSC11726 | 1.29e5 | 6942 |
| Vps2 | DRSC14886 | 1907 | 1052 |
| Tudor-SN | DRSC08581 | 72744 | 3567 |
| CG3323 | DRSC18303 | 1.09e5 | 5195 |
| tweek | DRSC02433 | 1.06e5 | 4522 |
| tweek | DRSC02434 | 1.04e5 | 4520 |
| tweek | DRSC02785 | 80211 | 2836 |
| pont | DRSC17029 | 1.77e5 | 7124 |
| Rcd2 | DRSC11756 | 1.73e5 | 7054 |
| kuk | DRSC15730 | 68219 | 3168 |
| sgg | DRSC17228 | 82155 | 2417 |
| sgg | DRSC17722 | 86919 | 2581 |
| sgg | DRSC18832 | 1.20e5 | 5540 |
| Cyp4d20 | DRSC08654 | 1.09e5 | 4774 |
| slmo + CG34179 | DRSC03143 | 75860 | 3341 |
| Nipsnap | DRSC20169 | 7718 | 856 |

Only “Renilla normaliser, rep 1”, for 2 of the entries above:
sgg [DRSC17228]	2417
sgg [DRSC17722]	2581

The listing continues.
| Gene | DRSC id | E2F firefly, rep 1 | Renilla normaliser, rep 1 |
| --- | --- | --- | --- |
| Wdr82 | DRSC02595 | 90129 | 3328 |
| Cyp12b2 | DRSC07364 | 1.52e5 | 5427 |
| snsl | DRSC00543 | 1.39e5 | 5097 |
| Pka-C1 | DRSC03399 | 80319 | 3996 |
| ftz-f1 | DRSC11347 | 1.50e5 | 7616 |
| Cyp4e2 | DRSC07371 | 2740 | 202 |
| CG30047 | DRSC05340 | 1.32e5 | 4588 |
| Ir75c | DRSC10190 | 1.74e5 | 10237 |
| Dci | DRSC08360 | 60518 | 3110 |
| CG30010 | DRSC05193 | 1.43e5 | 6245 |
| bs | DRSC04676 | 1.10e5 | 4255 |
| CG7335 | DRSC10816 | 1.30e5 | 6913 |
| mRpL54 | DRSC04545 | 76287 | 3565 |
| CG31777 | DRSC00201 | 1.43e5 | 5634 |
| Uba2 | DRSC11311 | 99294 | 4052 |
| CG8197 | DRSC07105 | 1.39e5 | 4554 |
| CG5758 | DRSC02889 | 77788 | 4094 |
| CG5758 | DRSC02890 | 97167 | 4514 |
